Reference: PubChem BioAssay AID2685 (National Center for Advancing Translational Sciences (NCATS), 2010)
This is one part of the list. The main result of the screen is listed elsewhere. These columns were measured beside it and carry no call. Most of these compounds were active or inconclusive in the main read-out, so they are no random draw. Potencies come from curve fits of mixed quality, noted in brackets.

Experiment: qHTS Assay for Lipid Storage Modulators in Drosophila S3 Cells;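 on cell number change: cells counted by Cell Tracker Red CMTPX staining in the red channel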
Details: BODIPY lipid droplet fluorescence, 18-24 h; for cell number change: measured here: cell count max response, cells fed with added oleic acid
Summary of the method: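 Drosophila S3 cells loaded with oleic acid (400 uM, as added) and compounds at several concentrations; lipid droplets imaged by 488-nm laser-scanning cytometry, 500–530 nm intensity and object ratio to cell channel. Percent activity normalized to 20 uM Triacsin C.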

[1] = measured here: lipid fluorescence (Fed channel) AC50, cells fed with added oleic acid
[2] = measured here: cell number channel AC50, cells fed with added oleic acid

O=C(CSc1ccc(-c2ccccn2)nn1)c1ccc(F)cc1
cell number change: 12.1% | AC50 [1]: 0.184 µM [rising, full curve, poor fit]

N=c1oc2ccc(Br)cc2cc1C(=O)NCc1ccccc1
cell number change: 9.7% | AC50 [1]: 0.651 µM [rising, single point]

Cc1cccc(CC2CC(=O)N(CCc3ccc4c(c3)OCO4)C2=O)c1 (stereo unspecified)
cell number change: 32.1% | AC50 [2]: 13 µM [rising, partial curve, poor fit]

Cc1cc(OC(=O)c2ccccc2C)c([N+](=O)[O-])c(=O)[nH]1
cell number change: -5.66% | AC50 [1]: 3.66 µM [rising, single point]

COCCOC(=O)C1=C(C)NC(=O)CC1c1cc2c(cc1Br)OCO2 (stereo unspecified)
AC50 [2]: 1.3 µM [rising, full curve] | AC50 [1]: 0.82 µM [rising, full curve]

C/C(=N\NC(=O)C1(C)CC1(Br)Br)c1cccc(NC(=O)C(C)(C)C)c1 (stereo unspecified)
cell number change: -13.4% | AC50 [2]: 2.31 µM [falling, single point] | AC50 [1]: 13 µM [falling, partial curve, poor fit]

COc1cccc2c(=S)c(CCC(C)=O)c(C)[nH]c12
cell number change: 1.05%

CCCn1c(N2CCN(C(=O)N3CCCCC3)CC2)nc2ccccc21
cell number change: -17% | AC50 [1]: 3.26 µM [rising, single point]

COC(=O)C1CN(S(=O)(=O)c2ccc(NC(C)=O)cc2)CCS1 (stereo unspecified)
cell number change: 22.9% | AC50 [1]: 1.16 µM [rising, single point]

Cc1ccc2nc(-c3cccc(N)c3)oc2c1
AC50 [1]: 16.4 µM [rising, partial curve]

CCn1cc(C(=O)NC2CCC(C)CC2)c(=O)c2cc(S(=O)(=O)N3CCCCC3)ccc21 (stereo unspecified)
AC50 [2]: 1.64 µM [rising, partial curve] | AC50 [1]: 2.06 µM [rising, partial curve]

O=C(COC(=O)C12CC3CC(CC(O)(C3)C1)C2)NC12CC3CC(CC(C3)C1)C2
cell number change: -65.7% | AC50 [2]: 11.6 µM [falling, partial curve]

Cc1cccc(N2CCN(C(=O)C3COc4ccccc4O3)CC2)c1C (stereo unspecified)
cell number change: 5.75%

O=C(C(Cc1ccccc1)n1cccc1)N1CCN(Cc2ccccc2)CC1 (stereo unspecified)
cell number change: 4.22%

CCOC(=O)c1c(NC(=O)c2cccs2)sc2c1CCN(C(=O)OCC)C2
cell number change: -33.7% | AC50 [2]: 29.1 µM [falling, single point]

O=C1c2ccccc2C(=O)N1SC1CCCCC1
cell number change: -66.1% | AC50 [2]: 18.4 µM [falling, single point] | AC50 [1]: 29.1 µM [falling, single point]

COc1ccc(NS(=O)(=O)c2cc(NC(=O)c3nc4nc(C)cc(C)n4n3)ccc2C)cc1
cell number change: 3.69% | AC50 [1]: 0.231 µM [rising, full curve, poor fit]

CN1C(=O)c2cccc3c(S(=O)(=O)N4CCCC4C(=O)O)ccc1c23 (stereo unspecified)
cell number change: 14.5%

O=C(/C=C/c1cccs1)N1CCC2(CC1)Oc1ccc(F)cc1C(=O)C21CC(c2ccc(Cl)cc2)=NO1 (stereo unspecified)
cell number change: 9.08%

Cc1ccc(S(=O)(=O)N2CCC(C(=O)Nc3ccc4c(c3)OCO4)CC2)cc1
cell number change: -5.55% | AC50 [1]: 6.51 µM [rising, single point]

CC1(C)CC(NC(=O)c2ccc3c(c2)OCO3)CC(C)(C)N1
cell number change: 1.69% | AC50 [1]: 6.51 µM [falling, single point]

COc1cccc(-c2nn3c(-c4cc(C)[nH]n4)nnc3s2)c1
cell number change: 3.54%

CCOC(=O)COc1coc(CN2CCN(c3ccccc3)CC2)cc1=O
cell number change: 3.68%

Cc1ccccc1C(=O)NC1CCN(CC(=O)Nc2nccs2)CC1
AC50 [2]: 0.58 µM [rising, single point]

CCOC(=O)CSc1ncnc2c(C(=O)OCC)c3n(c12)CCC3
cell number change: -8.75%

Cn1c(SCc2ccc(F)cc2)nnc1-c1ccccn1
AC50 [2]: 6.51 µM [rising, single point] | AC50 [1]: 7.31 µM [rising, partial curve, poor fit]

CN(C)c1ccc(CNn2cnnc2)cc1
cell number change: -26.3% | AC50 [2]: 0.651 µM [falling, full curve, poor fit] | AC50 [1]: 25.9 µM [falling, single point]

Cc1cc(S(=O)(=O)NCC(C)C)ccc1OCC(=O)NCc1ccccn1
cell number change: -0.957%

O=C(Nc1ccc(NC(=O)c2cccnc2Cl)cc1)c1cccc(Cl)c1
cell number change: 107% | AC50 [2]: 29.1 µM [rising, single point] | AC50 [1]: 0.206 µM [rising, single point]

Cc1c(C(=O)NCc2ccco2)sc2nc(-c3ccccc3)cn12
cell number change: -52.7% | AC50 [2]: 29.1 µM [falling, single point]

Cc1ccc2c(c1)cc(C(=O)NCc1ccccc1)n2C
cell number change: -10.7% | AC50 [1]: 0.58 µM [rising, single point]

CC(C)c1ccccc1NC(=O)c1ccccc1NC(=O)C1CCCCC1
cell number change: -1.19% | AC50 [1]: 2.59 µM [rising, partial curve]

COc1cc(-c2nc3ccc(C)cn3c2NCc2ccccc2)ccc1SC1CCCCC1
cell number change: -76.9% | AC50 [2]: 1.84 µM [falling, partial curve] | AC50 [1]: 1.84 µM [falling, partial curve]

CCn1c2ccccc2c2cc(NC(=O)COc3ccccc3)ccc21
cell number change: 16.6% | AC50 [1]: 0.326 µM [rising, full curve]

O=S(=O)(c1ccc(=S)[nH]c1)N1CCCCC1
cell number change: 13.5% | AC50 [1]: 29.1 µM [rising, single point]

CCCCN(CC)C(=O)Cn1ncc2c3ccccc3n(CCC)c2c1=O
cell number change: -5.67% | AC50 [1]: 0.58 µM [falling, single point]

Cc1[nH]n(-c2ccc(Cl)cc2)c(=O)c1/C=N/c1nnc(-c2ccccc2)s1
AC50 [1]: 14.6 µM [falling, single point]

O=C(Nc1ccc(N2CCN(C(=O)c3ccco3)CC2)c(Cl)c1)c1c(F)c(F)c(F)c(F)c1F
cell number change: -149% | AC50 [2]: 29.1 µM [falling, single point]

CCCc1cc(-c2ccc(O)c(OCC)c2)c(C#N)c(N)n1
cell number change: -6.79%

Cc1ccc(NCC(=O)N/N=C\c2cccc(O)c2)cc1
cell number change: 30.1%

Cc1nn(Cc2ccccc2)c(Cl)c1/C=C/C(=O)OC(C(=O)NC(N)=O)C(C)C (stereo unspecified)
cell number change: 1.95%

CCOc1cc(C(=O)Nc2cccc(C(C)=O)c2)ccc1OCC(=O)N1CCCCC1
cell number change: 46.9% | AC50 [2]: 20.6 µM [rising, single point]

COC(=O)N1C(=O)[C@](c2ccccc2)(C2CCCC2)N1C(=O)OC
cell number change: -5.99% | AC50 [1]: 6.51 µM [rising, single point]

Cc1ccc(NC(=O)c2nc3nccc(C)n3n2)c(C)c1
cell number change: -11.7%

COc1cc(/C=C2\SC(N)=NC2=O)cc(OC)c1
cell number change: -12.2%

S=C(Nc1ccccc1)Nc1cc(Cl)ccc1Oc1ccccc1
cell number change: 44.7% | AC50 [2]: 18.4 µM [rising, single point] | AC50 [1]: 20.6 µM [rising, single point]

Cc1cc(OCCOCCN2CCCC2)ccc1C(C)C
cell number change: -48.2% | AC50 [2]: 16.4 µM [falling, partial curve] | AC50 [1]: 16.4 µM [falling, single point]

COc1cccc(OCc2cc(C(=O)NC3CCOCC3)no2)c1
cell number change: -11.8% | AC50 [1]: 29.1 µM [falling, single point]

COc1cc(NC(=O)CN2C(=O)CSc3ccc(S(=O)(=O)N4CCCC4)cc32)cc(OC)c1
cell number change: 13% | AC50 [1]: 18.4 µM [rising, single point]

Cc1ccc(N(CC(=O)Nc2ccccc2-c2ccccc2)S(=O)(=O)c2ccccc2)cc1
AC50 [1]: 29.1 µM [falling, single point]

CC1Cn2c(nc3sc4c(c3c2=O)CCC4)N1CCO (stereo unspecified)
cell number change: -8.65% | AC50 [1]: 3.66 µM [rising, single point]

Cc1ccc(C(=O)Oc2ccc(-c3nnco3)cc2)o1
cell number change: -33.6% | AC50 [1]: 14.6 µM [falling, single point]

CCCCCCn1c(O)c(/C=C2\C=NN=C2c2ccccc2)sc1=S
cell number change: -23.9% | AC50 [1]: 23.1 µM [falling, single point]

O=C(Nc1ccc(S(=O)(=O)Nc2nccs2)cc1)c1cc(-c2ccccc2Cl)nc2ccccc12
cell number change: 45% | AC50 [2]: 29.1 µM [rising, single point] | AC50 [1]: 6.51 µM [rising, full curve]

COc1ccc(NC(=O)c2ccc(CN3CCN(c4ccccc4)CC3)cc2)cc1OC
cell number change: 185% | AC50 [2]: 8.2 µM [rising, partial curve] | AC50 [1]: 10.3 µM [rising, partial curve]

CCCc1cc(=O)oc2c(C)c(OCC(=O)Nc3ccccn3)ccc12
cell number change: 42.9% | AC50 [2]: 6.51 µM [falling, single point] | AC50 [1]: 6.51 µM [falling, single point]

COC(=O)c1c(NC(=O)c2cccc([N+](=O)[O-])c2)sc(C(N)=O)c1C
cell number change: -61.3% | AC50 [1]: 6.51 µM [falling, single point]

OCc1nc2ccccc2n1/N=C/c1cccs1
cell number change: 15.9%

COC(=O)c1cc(-c2c[nH]c3ccccc23)n[nH]1
cell number change: -4.79% | AC50 [1]: 0.0058 µM [rising, full curve, poor fit]

CC(=O)Nc1nnc(SCC(=O)NC2CCCC2)s1
cell number change: 24.2%

CN(C)c1nc(-c2ccccc2)ncc1S(=O)(=O)c1ccccc1
cell number change: 2.21% | AC50 [2]: 0.517 µM [falling, single point] | AC50 [1]: 0.651 µM [falling, single point]

Cc1cc(C(=O)NNC(=O)c2ccc(C)c([N+](=O)[O-])c2)c(C)o1
cell number change: -4.82% | AC50 [2]: 2.59 µM [rising, partial curve]

Cc1ccc(C)c(N(CC(=O)NCc2ccco2)C(=O)CNS(=O)(=O)c2ccc(F)cc2)c1
cell number change: -2.56%
